The source of these data is PubChem BioAssay.

Some of the results follow. Shown are side measurements of this screen, not its main read-out; they come without a call. For some assays here: The list favours compounds with an active or inconclusive main result.

A short description of one test: PubChem AID 1586. Conditions: yeast two-hybrid polyglutamine protein interaction, reporter readout; measured here: averaged growth delta OD.
Test [1] is described as follows: enhancers of SMN2 over SMN1 splicing, cell-based, SMN2/SMN1 luciferase reporters (AID 1598). Conditions: SMN2 vs SMN1 luciferase splicing reporter cells, at 10 µM; SMN1 luciferase ratio: measured here: SMN1 luciferase reporter average; SMN2 luciferase ratio: measured here: SMN2 luciferase reporter average, stronger effect = higher value. For orientation: In a reporter assay the amount or activity of a reporter protein is the signal.

A short description of test [2]: protection against mutant huntingtin cytotoxicity, PC12 cells, LDH release (AID 1610). Conditions: PC12 mutant huntingtin toxicity, final LDH at 4 uM, stronger effect = lower value.

Consider `CN(C)CCCN1c2ccccc2Sc2ccc(Cl)cc21`, for which the signal change (36 h minus 0 h) in the test “PubChem AID 1586” was found to be 0.0915. For the same compound, in test [1], the SMN1 luciferase ratio was 0.91 and the SMN2 luciferase ratio turned out to be 0.8. In test [2], this compound displayed a normalised LDH release of 0.804.

`CC(C)Oc1ccc2c(=O)cc(-c3ccccc3)oc2c1` registered a signal change (36 h minus 0 h) in the test “PubChem AID 1586” of 0.166. For the same compound, in test [1], the SMN1 luciferase ratio came out at 1.28 and the SMN2 luciferase ratio came out at 1.15. Also, in test [2], the normalised LDH release was determined as 0.905.

`CC(=O)Oc1cccc(O)c1`: in the test “PubChem AID 1586”, the signal change (36 h minus 0 h) worked out at 0.251. Further, in test [1], the SMN1 luciferase ratio was found to be 1.05 and the SMN2 luciferase ratio came out at 1.04. For the same compound, the normalised LDH release in test [2] is 0.864.

For the compound `CC1CCCC(C)N1NC(=O)c1ccc(Cl)c(S(N)(=O)=O)c1` (stereo not given), the signal change (36 h minus 0 h) in “PubChem AID 1586” was 0.0762. Moreover, in test [1], the SMN1 luciferase ratio came to 0.93 and the SMN2 luciferase ratio turned out to be 0.96. In test [2], the normalised LDH release worked out at 1.01.

Consider `CO/N=C(\C(=O)NC1C(=O)N2C(C(=O)O)=C(CSc3nc(=O)c(O)nn3C)CS[C@H]12)c1csc(N)n1` (stereo not given in full), for which, in the test “PubChem AID 1586”, the signal change (36 h minus 0 h) was 0.106. Also, in test [1], the SMN1 luciferase ratio came out at 1.01 and the SMN2 luciferase ratio was 0.94. The normalised LDH release in test [2] is 0.786.
